Data reported in article PMC4695161.
Results are given in words; binding and its absence hold for the method and conditions named. Some binding calls cover weakened binding; strength is not graded here.

Sequences of proteins named here, by UniProt entry; tags and fusion partners are left off. Residues count along the entry.
UniProt P54368: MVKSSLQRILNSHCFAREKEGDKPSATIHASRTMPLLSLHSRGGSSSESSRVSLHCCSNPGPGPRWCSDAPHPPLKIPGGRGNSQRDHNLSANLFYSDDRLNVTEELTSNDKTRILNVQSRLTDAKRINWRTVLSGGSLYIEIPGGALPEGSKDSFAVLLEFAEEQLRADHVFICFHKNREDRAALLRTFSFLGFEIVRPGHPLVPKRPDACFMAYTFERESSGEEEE
UniProt P24385, residues 155-295: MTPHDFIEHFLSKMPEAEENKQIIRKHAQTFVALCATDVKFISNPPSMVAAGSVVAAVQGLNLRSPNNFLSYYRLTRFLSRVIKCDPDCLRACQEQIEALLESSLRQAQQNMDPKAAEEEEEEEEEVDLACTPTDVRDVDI
UniProt O14977: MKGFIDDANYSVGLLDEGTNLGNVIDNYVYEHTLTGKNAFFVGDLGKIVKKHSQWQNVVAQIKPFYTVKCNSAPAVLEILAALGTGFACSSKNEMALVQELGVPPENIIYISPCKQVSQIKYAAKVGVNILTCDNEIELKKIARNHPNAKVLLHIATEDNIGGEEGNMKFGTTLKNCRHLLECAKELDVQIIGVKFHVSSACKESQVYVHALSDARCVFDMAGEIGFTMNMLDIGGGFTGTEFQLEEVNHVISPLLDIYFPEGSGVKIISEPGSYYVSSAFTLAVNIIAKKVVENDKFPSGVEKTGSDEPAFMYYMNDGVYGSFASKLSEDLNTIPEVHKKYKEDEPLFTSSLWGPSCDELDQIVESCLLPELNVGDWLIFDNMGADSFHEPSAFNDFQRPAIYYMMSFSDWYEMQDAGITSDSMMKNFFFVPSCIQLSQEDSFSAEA

Key:
[1] = molecular target: human antizyme (AZ), wild type (human) (UniProt P54368); assay: condition: AZ 0.25 mg/ml, CCND1(155-295) 0.35 mg/ml, molar ratio 1; AUC; sedimentation velocity, size distribution of mixtures at molar ratio AZ/CCND1 of 1; 30 mM Tris-HCl pH 7.4, 50 mM NaCl, 20°C; no constant fitted; both purified
[2] = molecular target: human antizyme (AZ), wild type (human) (UniProt P54368); assay: AUC; sedimentation velocity, size distribution of AZ with ODC (or AZI) and CCND1, pre-incubated in either order or co-incubated; molar ratio of AZ to each protein 1; 30 mM Tris-HCl pH 7.4, 50 mM NaCl, 20°C; both purified

binding [1]	binding [2]	Substance
no binding	–	C-terminal CCND1 peptide CCND1(155-295) (from UniProt P24385 155-295) (domain or fragment)
–	binds	human antizyme inhibitor (AZI) (from UniProt O14977 1-448)
